Values from PubChem BioAssay AID504791 (Drosophila RNAi Screening Center, 2011).
The deposit covers about 23,000 reagents; shown is a random part of those with a known target gene and a result. Over the whole deposit, 199 (0.86%) got an active call. 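Plate-scaled ratios behind the calls are not deposited; printed light signals are raw; many rows marked increased or decreased are still called inactive.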 A number with no mark means an inactive call. Names joined by + are all predicted targets of the reagent. Not given: the direction of the score.

Purpose: 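Genes whose knock-down strengthens or weakens small-RNA reporter silencing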 (primary screen)
Cell system: Drosophila S2-derived reporter cells
Reagent: long dsRNA against Drosophila genes, about 150-250 ng dsRNA per well (siRNA assay); about 80-120 ng (miRNA assay)
Time to read-out: about 5 days (siRNA assay); about 4 days (miRNA assay)
Treatment: copper sulfate induction of reporters: 25 µM (siRNA assay); 200 mM stated (miRNA assay), 1-2 days before reading
Measurement: 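Per-well ratio of Renilla over firefly light, expressed relative to that plate's average ratio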
Call rule: 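a well was a first-pass pick when its plate-scaled ratio rose above 1.5 (siRNA assay) or 1.6 (miRNA assay), or dropped below 0.6; a gene counted only if two separate dsRNAs agreed on retest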

no.	target gene	DRSC id	stable siRNA reporter change	miRNA reporter change	stable assay Renilla, run 1 (luminescence)	stable assay firefly, run 1 (luminescence)
1	CG12811	DRSC14549			6879	4.27e5
2	Atg4b (Autophagy-related 4b)	DRSC15988	reporter ratio lowered past the hit cutoff		9593	8.45e5
3	gukh (GUK-holder)	DRSC14768			7012	4.03e5
4	gukh (GUK-holder)	DRSC15806			7306	2.79e5
5	gukh (GUK-holder)	DRSC15944			9486	4.43e5
6	CG31106	DRSC14655			6719	3.06e5
7	CG13151	DRSC06276			5748	2.57e5
8	Con (Connectin)	DRSC08652			8577	4.55e5
9	CG8155	DRSC07084			12023	5.17e5
10	CG8155	DRSC21543			8659	4.47e5
11	ZnT63C (Zinc transporter 63C)	DRSC08032			5363	4.43e5
12	ZnT63C (Zinc transporter 63C)	DRSC08033			5204	4.98e5
13	ZnT63C (Zinc transporter 63C)	DRSC08519			8662	4.40e5
14	ZnT63C (Zinc transporter 63C)	DRSC21989			8996	6.13e5
15	Su(var)2-HP2	DRSC06204			8968	4.65e5
16	GATAd	DRSC02803			27982	5.21e5
17	CG14684	DRSC14907			6610	3.53e5
18	Psf2 (Partner of Sld Five 2)	DRSC00516			8290	5.99e5
19	mbm (mushroom body miniature)	DRSC00319			10996	5.25e5
20	CG34235 + CG30058 + CG34312	DRSC22142			9003	6.48e5
21	Oatp33Eb (Organic anion transporting polypeptide 33Eb)	DRSC02955			7635	4.72e5
22	CG2871	DRSC18230			2964	3.31e5
23	CG2871	DRSC21719			8467	4.76e5
24	Cnx99A + Cnx14D	DRSC16610			6067	3.79e5
25	gd (gastrulation-defective)	DRSC20336			6020	4.05e5
26	Acer (Angiotensin-converting enzyme-related)	DRSC01852			7039	6.57e5
27	COX7AL2 (Cytochrome c oxidase subunit 7A-like 2)	DRSC00099			4319	4.32e5
28	sordd2 + sordd1	DRSC20136			9779	6.35e5
29	sordd2 + sordd1	DRSC28444		reporter ratio raised past the hit cutoff		
30	CG31463	DRSC14346			6910	4.14e5
31	CG32631	DRSC19768	reporter ratio lowered past the hit cutoff		4447	4.94e5
32	Tim17b2 (Translocase inner membrane 17)	DRSC03457			7834	4.95e5
33	Sply (Sphingosine-1-phosphate lyase)	DRSC07299	reporter ratio raised past the hit cutoff		4439	1.56e5
34	CG31821	DRSC22162			9333	6.19e5
35	CG42500	DRSC14822			6803	5.43e5
36	CG13807	DRSC08342			6458	3.03e5
37	Dlip3 (Dorsal interacting protein 3)	DRSC07401			5631	2.78e5
38	Rsbp15 (Radial spoke binding protein 15)	DRSC14176			6410	4.41e5
39	Mlf (Myelodysplasia/myeloid leukemia factor)	DRSC07472	reporter ratio lowered past the hit cutoff		4551	4.28e5
40	Ets21C (Ets at 21C)	DRSC00751			7274	4.92e5
41	CG1317	DRSC08305			8142	2.95e5
42	CG31792	DRSC02604			7758	5.30e5
43	puml (pummelig)	DRSC06793			6879	4.29e5
44	pkm (Pinkman)	DRSC19674			7327	4.87e5
45	CG3061	DRSC15460			7643	3.63e5
46	CG11777	DRSC06081			6884	4.11e5
47	CG4676	DRSC06879			5238	3.44e5
48	RecQ5 (RecQ5 helicase)	DRSC11266			8083	3.03e5
49	CG42582 (retired record)	DRSC20675			4644	3.99e5
50	mod(mdg4) (modifier of mdg4)	DRSC13474			3323	2.91e5
51	mod(mdg4) (modifier of mdg4)	DRSC13475			3220	3.03e5
52	mod(mdg4) (modifier of mdg4)	DRSC13478			4192	3.25e5
53	mod(mdg4) (modifier of mdg4)	DRSC13479			3611	3.59e5
54	mod(mdg4) (modifier of mdg4)	DRSC15042			7799	4.67e5
55	mod(mdg4) (modifier of mdg4)	DRSC17000			11683	4.74e5
56	flap (flapper)	DRSC03918			5310	3.48e5
57	flap (flapper)	DRSC04087		reporter ratio lowered past the hit cutoff	1.44e5	1.18e6
58	CG10984	DRSC09817			7724	3.45e5
59	CG10984	DRSC28387		reporter ratio lowered past the hit cutoff		
60	CG11122	DRSC19382			7998	4.93e5
61	CG12355	DRSC09381			4779	4.34e5
62	CG12355	DRSC09883			6451	4.85e5
63	Mes2 (Mesoderm-expressed 2)	DRSC11593			5258	4.28e5
64	Mes2 (Mesoderm-expressed 2)	DRSC11632			4692	4.83e5
65	pum (pumilio)	DRSC12722			5243	2.72e5
66	pum (pumilio)	DRSC12726			4104	3.60e5
67	pum (pumilio)	DRSC17037			3484	3.75e5
68	pum (pumilio)	DRSC17038			7179	4.86e5
69	pum (pumilio)	DRSC22758			4696	3.15e5
70	pum (pumilio)	DRSC22794			4080	4.14e5
71	a10 (antennal protein 10)	DRSC11319			8443	4.02e5
72	vls (valois)	DRSC02101			56275	1.72e6
73	Eaf (ELL-associated factor)	DRSC05050			2876	2.46e5
74	Eaf (ELL-associated factor)	DRSC06052			38395	1.46e6
75	Eaf (ELL-associated factor)	DRSC22028			9016	6.05e5
76	Mco1 (Multicopper oxidase 1)	DRSC02720			6962	3.82e5
77	VhaAC45 (Vacuolar H[+] ATPase AC45 accessory subunit)	DRSC07058			8454	6.27e5
78	eIF3f2 (eukaryotic translation initiation factor 3 subunit f2)	DRSC04903			7910	5.75e5
79	Der-1 (Derlin-1)	DRSC00301			15192	7.14e5
80	CG32054	DRSC10684			7199	3.94e5
81	CG15141	DRSC02441			28235	1.78e6
82	CG15141	DRSC02442			8989	5.63e5
83	qm (quemao)	DRSC11386			6435	5.26e5

Sorted by “stable assay Renilla, run 1 (luminescence)” (highest first): some entries from above
target gene	DRSC id	stable siRNA reporter change	miRNA reporter change	stable assay Renilla, run 1 (luminescence)	stable assay firefly, run 1 (luminescence)
CG15141	DRSC02441			28235	1.78e6
Der-1 (Derlin-1)	DRSC00301			15192	7.14e5
CG15141	DRSC02442			8989	5.63e5
VhaAC45 (Vacuolar H[+] ATPase AC45 accessory subunit)	DRSC07058			8454	6.27e5
eIF3f2 (eukaryotic translation initiation factor 3 subunit f2)	DRSC04903			7910	5.75e5
CG32054	DRSC10684			7199	3.94e5
qm (quemao)	DRSC11386			6435	5.26e5
